Experimental data taken from US20140105915A1.
These are yes or no findings as the source states them, for the method shown. Some entries that bind do so weakly or less than the wild type. For some assays here: Tags and fused reporters may be left off the sequences shown.

Sequences of proteins named here, by UniProt entry; tags and fusion partners are left off. Residues count along the entry.
BCMA-Fc (Q02223, residues 1-54): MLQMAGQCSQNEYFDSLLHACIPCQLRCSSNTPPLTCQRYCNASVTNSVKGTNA
recombinant human BCMA (US Biological, B0410) (Q02223, residues 5-54): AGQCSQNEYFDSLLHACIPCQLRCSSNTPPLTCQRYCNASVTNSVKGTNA

How the values were obtained:
[1] = target: cyno BCMA on HEK293 cells (cyno); test: FMAT, cyno BCMA transfected HEK293 cells
[2] = target: cyno BCMA on HEK293 cells (cyno); test: FMAT, HEK293 cells transfected with cyno BCMA, anti-human IgG FMAT Blue detection
[3] = target: BCMA-Fc (UniProt Q02223); test: Biacore, CA8 chimera captured on protein A, BCMA-Fc injected
[4] = target: T1, TACI-Fc (UniProt O14836); test: Biacore, CA8 chimera captured on protein A, TACI-Fc injected
T1 sequence (looked up): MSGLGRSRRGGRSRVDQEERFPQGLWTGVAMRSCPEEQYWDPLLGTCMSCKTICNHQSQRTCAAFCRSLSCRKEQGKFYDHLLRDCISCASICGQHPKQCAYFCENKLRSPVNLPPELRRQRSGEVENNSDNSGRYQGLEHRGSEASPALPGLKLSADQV

[5] = target: T2, BAFF-R-Fc (UniProt Q96RJ3); test: Biacore, CA8 chimera captured on protein A, Fc fusion injected
T2 sequence (looked up): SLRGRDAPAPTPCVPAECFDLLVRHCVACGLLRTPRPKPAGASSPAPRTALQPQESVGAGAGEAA

[6] = target: T1, TACI-Fc; test: as above
[7] = target: BCMA-Fc (UniProt Q02223); test: Biacore, CA8 chimera captured on protein A, BCMA-Fc injected at 2.5 µg/ml
[8] = target: T2, BAFF-R-Fc; test: Biacore, CA8 chimera captured on protein A, BAFF-R-Fc injected
[9] = target: recombinant human BCMA (US Biological, B0410) (human) (UniProt Q02223); test: SPR Biacore T100, mAb captured on Protein A, 37C
[10] = target: recombinant human BCMA (US Biological, B0410) (human) (UniProt Q02223); test: SPR Biacore T100, mAb captured on Protein A, 25C and 37C

B1: CA8 chimera (antibody, V domains shown)
VH: EVQLQQSGAVLARPGASVKMSCKGSGYTFTNYWMHWVKQRPGQGLEWIGATYRGHSDTYYNQKFKGKAKLTAVTSTSTAYMELSSLTNEDSAVYYCTRGAIYNGYDVLDNWGQGTLVTVSS
VL: DIQLTQTTSSLSASLGDRVTISCSASQDISNYLNWYQQKPDGTVELVIYYTSNLHSGVPSRFSGSGSGTDYSLTIGYLEPEDVATYYCQQYRKLPWTFGGGSKLEIKR
[1]
  binding: binds
[2]
  binding: binds
[3]
  binding: binds
[4]
  binding: no binding (tested: 2.5µg/ml)
[5]
  binding: no binding
[6]
  binding: no binding
[7]
  binding: binds
[8]
  binding: no binding (tested: 2.5µg/ml)

B2: CA8 humanised J9M1 (antibody, human IgG1, kappa, V domains shown)
VH: QVQLVQSGAEVKKPGSSVKVSCKGSGYTFTNYWMHWVRQAPGQGLEWIGATYRGHSDTYYNQKFKGRATLTADTSTSTAYMELSSLRSEDTAVYYCTRGAIYDGYDVLDNWGQGTLVTVSS
VL: DIQMTQSPSSLSASVGDRVTITCSASQDISNYLNWYQQKPGKAPKLLIYYTSNLHSGVPSRFSGSGSGTDYTLTISSLQPEDFATYYCQQYRKLPWTFGQGTKLEIKR
[9]
  binding: binds

B3: CA8 humanised J9M0 (antibody, human IgG1, kappa, V domains shown)
VH: QVQLVQSGAEVKKPGSSVKVSCKGSGYTFTNYWMHWVRQAPGQGLEWIGATYRGHSDTYYNQKFKGRATLTADTSTSTAYMELSSLRSEDTAVYYCTRGAIYDGYDVLDNWGQGTLVTVSS
VL: DIQMTQSPSSLSASVGDRVTITCSASQDISNYLNWYQQKPGKAPKLLIYYTSNLHSGVPSRFSGSGSGTDFTLTISSLQPEDFATYYCQQYRKLPWTFGQGTKLEIKR
[10]
  binding: binds
[9]
  binding: binds

B4: CA8 humanised J8M1 (antibody, human IgG1, kappa, V domains shown)
VH: QVQLVQSGAEVKKPGSSVKVSCKASGYTFTNYWMHWVRQAPGQGLEWMGATYRGHSDTYYNQKFKGRVTITADKSTSTAYMELSSLRSEDTAVYYCTRGAIYDGYDVLDNWGQGTLVTVSS
VL: DIQMTQSPSSLSASVGDRVTITCSASQDISNYLNWYQQKPGKAPKLLIYYTSNLHSGVPSRFSGSGSGTDYTLTISSLQPEDFATYYCQQYRKLPWTFGQGTKLEIKR
[9]
  binding: binds

B5: CA8 humanised J8M0 (antibody, human IgG1, kappa, V domains shown)
VH: QVQLVQSGAEVKKPGSSVKVSCKASGYTFTNYWMHWVRQAPGQGLEWMGATYRGHSDTYYNQKFKGRVTITADKSTSTAYMELSSLRSEDTAVYYCTRGAIYDGYDVLDNWGQGTLVTVSS
VL: DIQMTQSPSSLSASVGDRVTITCSASQDISNYLNWYQQKPGKAPKLLIYYTSNLHSGVPSRFSGSGSGTDFTLTISSLQPEDFATYYCQQYRKLPWTFGQGTKLEIKR
[9]
  binding: binds

B6: CA8 humanised J7M1 (antibody, human IgG1, kappa, V domains shown)
VH: QVQLVQSGAEVKKPGSSVKVSCKASGYTFTNYWMHWVRQAPGQGLEWMGATYRGHSDTYYNQKFKGRVTITADKSTSTAYMELSSLRSEDTAVYYCARGAIYDGYDVLDNWGQGTLVTVSS
VL: DIQMTQSPSSLSASVGDRVTITCSASQDISNYLNWYQQKPGKAPKLLIYYTSNLHSGVPSRFSGSGSGTDYTLTISSLQPEDFATYYCQQYRKLPWTFGQGTKLEIKR
[9]
  binding: binds

B7: CA8 humanised J8M2 (antibody, human IgG1, kappa, V domains shown)
VH: QVQLVQSGAEVKKPGSSVKVSCKASGYTFTNYWMHWVRQAPGQGLEWMGATYRGHSDTYYNQKFKGRVTITADKSTSTAYMELSSLRSEDTAVYYCTRGAIYDGYDVLDNWGQGTLVTVSS
VL: DIQLTQSPSSLSASVGDRVTITCSASQDISNYLNWYQQKPGKAPELVIYYTSNLHSGVPSRFSGSGSGTDYTLTISSLQPEDFATYYCQQYRKLPWTFGQGTKLEIKR
[9]
  binding: binds

B8: CA8 humanised J7M2 (antibody, human IgG1, kappa, V domains shown)
VH: QVQLVQSGAEVKKPGSSVKVSCKASGYTFTNYWMHWVRQAPGQGLEWMGATYRGHSDTYYNQKFKGRVTITADKSTSTAYMELSSLRSEDTAVYYCARGAIYDGYDVLDNWGQGTLVTVSS
VL: DIQLTQSPSSLSASVGDRVTITCSASQDISNYLNWYQQKPGKAPELVIYYTSNLHSGVPSRFSGSGSGTDYTLTISSLQPEDFATYYCQQYRKLPWTFGQGTKLEIKR
[9]
  binding: binds

B9: CA8 humanised J7M0 (antibody, human IgG1, kappa, V domains shown)
VH: QVQLVQSGAEVKKPGSSVKVSCKASGYTFTNYWMHWVRQAPGQGLEWMGATYRGHSDTYYNQKFKGRVTITADKSTSTAYMELSSLRSEDTAVYYCARGAIYDGYDVLDNWGQGTLVTVSS
VL: DIQMTQSPSSLSASVGDRVTITCSASQDISNYLNWYQQKPGKAPKLLIYYTSNLHSGVPSRFSGSGSGTDFTLTISSLQPEDFATYYCQQYRKLPWTFGQGTKLEIKR
[9]
  binding: binds
